Measured values: paper PMC8217685
These are yes or no findings as the source states them, for the method shown. In cells and extracts the contact can be indirect. A result given as binding can be weak or reduced; the word gives no strength.

Amino acid sequences for entries named in this document (tags omitted).
UniProt A0A1D8PLA9: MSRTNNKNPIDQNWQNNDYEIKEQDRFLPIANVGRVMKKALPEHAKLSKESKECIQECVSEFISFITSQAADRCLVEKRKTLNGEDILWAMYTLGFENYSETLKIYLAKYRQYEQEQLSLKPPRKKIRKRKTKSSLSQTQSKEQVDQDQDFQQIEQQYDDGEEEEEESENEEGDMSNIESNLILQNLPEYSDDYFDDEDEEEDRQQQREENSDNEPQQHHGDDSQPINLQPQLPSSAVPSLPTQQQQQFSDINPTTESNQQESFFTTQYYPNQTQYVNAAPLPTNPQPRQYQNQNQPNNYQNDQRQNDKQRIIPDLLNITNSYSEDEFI

Molecular target: Hap5-TAP (C. albicans)
Assay: co-IP; 5 mg C. albicans whole-cell extract (Winston buffer: 40 mM HEPES-NaOH pH 7.5, 350 mM NaCl, 10% glycerol, 0.1% Tween 20); TAP-tagged subunit captured on IgG-Sepharose for 4 h at 4 °C and eluted with AcTEV protease; blot probed with anti-FLAG; cells grown in -Fe (BPS) or +Fe (BPS plus FAS); WT, hap2Δ/Δ or hap3Δ/Δ (+Fe) backgrounds

- binding: binds
Substance: Hap3-FLAG (from UniProt A0A1D8PLA9 1-329)
